Among the data in PubChem BioAssay AID2685 (National Center for Advancing Translational Sciences (NCATS), 2010) are cell number change and AC50 values, retold here.

This experiment in a line: qHTS Assay for Lipid Storage Modulators in Drosophila S3 Cells.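 For cell number change: cells counted by Cell Tracker Red CMTPX staining in the red channel.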 Conditions: BODIPY lipid droplet fluorescence, 18-24 h; for cell number change: measured here: cell count max response, cells fed with added oleic acid. Summed up: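 Drosophila S3 cells loaded with oleic acid (400 uM, as added) and compounds at several concentrations; lipid droplets imaged by 488-nm laser-scanning cytometry, 500–530 nm intensity and object ratio to cell channel. Percent activity normalized to 20 uM Triacsin C.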
On the technique in general: In qHTS, concentration-response curves come from the screen itself.

Where [1] appears, read: measured here: cell number channel AC50, cells fed with added oleic acid.
Setting [2] is: measured here: lipid fluorescence (Fed channel) AC50, cells fed with added oleic acid.

Some of the results follow. Shown are side measurements of this screen, not its main read-out; they come without a call. The list favours compounds with an active or inconclusive main result. The note in brackets gives the kind of curve behind each potency; many fits are weak.

For `O=C(Nc1cccnc1N1CCOCC1)c1ccco1`, the cell number change is -48.2%. Besides, under setting [1], the concentration at half-maximal activity (AC50) is 5.8 µM [falling, partial curve]. Further, the AC50 under setting [2] was 25.9 µM [falling, single point].

`COc1cccc2cc3c(=O)n(-c4ccccc4)nc-3oc12`: the cell number change is -14.4%. Under setting [2], the AC50 is 29.1 µM [rising, single point].

With `COC(=O)c1sccc1NC(=O)Cc1ccc(OC)c(OC)c1`, the cell number change is -50%. In addition, under setting [1], the AC50 is 1.64 µM [falling, partial curve].

As to `CCOC(=O)c1c(NCc2ccc3c(c2)OCO3)c2ccccc2[nH]c1=O`, the AC50 runs as follows: under setting [1], 1.3 µM [rising, full curve]; under setting [2], 1.46 µM [rising, full curve].

As to `Cc1nc(C)c(C(=O)Nc2nc3c(C)cccc3s2)o1`, the cell number change was -16%. Besides, under setting [1], the concentration at half-maximal activity (AC50) is 6.51 µM [falling, single point]. Moreover, the half-maximal activity concentration (AC50) under setting [2] was 6.51 µM [falling, partial curve].

Regarding `CCC(/C=N/NC(=O)c1ccccc1F)CC`, the cell number change was -24.4%. Also, under setting [1], the concentration at half-maximal activity (AC50) is 1.46 µM [rising, full curve]. Moreover, the half-maximal activity concentration (AC50) under setting [2] is 0.326 µM [rising, full curve].

In the case of `COc1ccccc1C(=O)NCCC(=O)NCC(c1ccc(F)cc1)N1CCOCC1` (stereo not drawn), the AC50 under setting [1] is 4.11 µM [rising, partial curve].

For the compound `CCOc1ccc(N(C(C)C(=O)Nc2cccnc2)S(C)(=O)=O)cc1` (stereo not drawn), the cell number change amounted to 35.7%. Besides, under setting [2], the AC50 is 4.11 µM [rising, full curve, poor fit].

As to `Nc1ccc(O)c2c1C(=O)c1ccccc1C2=O`, the cell number change was -2.39%. Besides, under setting [2], the concentration at half-maximal activity (AC50) was 29.1 µM [falling, single point].

`COc1cc(/C=C/C(=O)Nc2cccc(S(=O)(=O)N3CCOCC3)c2)ccc1OCC#N`: the cell number change stood at 28%. Also, the half-maximal activity concentration (AC50) under setting [2] was 29.1 µM [rising, single point].

As to `Cc1ccc(C2(C)NC(=O)N(CC(=O)Nc3ccc(-c4nc5ccc(C)cc5s4)cc3)C2=O)cc1` (stereo not drawn), the cell number change is 16.6%.

In the case of `O=C(CN1CCN(Cc2ccc(Cl)cc2)C1=O)NCCCN1CCOCC1`, the cell number change is -5.38%. For the same compound, under setting [2], the AC50 was 25.9 µM [rising, single point].

With `CCOc1ccc(N(CC(=O)Nc2ccccc2OCC)S(=O)(=O)c2c(C)noc2C)cc1`, the cell number change is -5.9%.

`COc1cccc2c1OC1(C)CC2NC(=O)N1c1cccc(C(=O)Nc2ccc3c(c2)OCCO3)c1` (stereo not drawn): the cell number change is 13.1%. Besides, under setting [2], the AC50 is 6.51 µM [rising, single point].

For `Cc1ccc(Cl)cc1NC(=O)c1cnn2c1NC(c1ccco1)CC2C(F)(F)F` (stereo not drawn), the cell number change was 281%. In addition, the concentration at half-maximal activity (AC50) under setting [1] is 8.2 µM [rising, partial curve]. Moreover, the concentration at half-maximal activity (AC50) under setting [2] was 0.291 µM [rising, partial curve, poor fit].

`Cc1ccc(C(=O)NC(=S)Nc2ccccc2N2CCCC2)cc1[N+](=O)[O-]`: the cell number change was -36.2%. The AC50 under setting [1] was 0.13 µM [rising, full curve].

As a reminder, the AC50 is the concentration giving half of the maximal activity seen.
